Measurements from patent US20250303006A1, “BIOCOMPATIBLE ANTISEPTIC COMPOSITION CONTAINING 9-HYDROXYCALABAXANTHONE AND/OR RELATED XANTHONES” (UNIVERSITAT DE LES ILLES BALEARS, priority 2022, published 2025).
Some results were stated once for a whole list of compounds, not compound by compound. At least one structure is not confirmed: it was looked up by name or label, or the drawing left a doubt.

System: human gingival fibroblast cells
Experiment: LDH cytotoxicity in immortalized human gingival fibroblasts
Format: cell-based
Details: 24 h
Experimental: Cells were seeded in 48-well plates at a density of 2×10^4 cells/well. When the cells reached confluence, they were treated with different concentrations of HCX, and cytotoxicity was determined.
48 hours after seeding the iHGF cells in 48-well plates, cell inflammation was induced by means of adding 1 μg/ml of P. gingivalis lipopolysaccharide (LPS) (InvivoGen, San Diego, CA, USA) and the cells were treated with different concentrations of HCX (0.00002, 0.0002, 0.002%) in a fibroblast medium with 50 μg/ml of ascorbic acid (Sigma-Aldrich, St. Louis, MO, USA) for 48 hours. […]
To estimate the cytotoxicity of the different concentrations of HCX, the presence of lactate dehydrogenase (LDH) in the culture media 48 h after pro-inflammatory stimulation with LPS and treatment with HCX was used as the cell death index. Following the manufacturer's instructions (Cytotoxicity Detection kit, Roche Diagnostics, Mannheim, Germany), LDH activity was determined spectrophotometrically after a 30-minute incubation at room temperature (RT) of 50 μl of culture media and 50 μl of the reaction mixture, measuring nicotinamide adenine dinucleotide (NADH) oxidation at 490 nm in the presence of pyruvate. […]
Immortalized human gingival fibroblasts were cultured like in experiment 1 of section 1.2. […] Cell cytotoxicity was measured, like in experiment 1 of section 1.4. […]

SMILES: COc1c(O)cc2oc3cc(O)c(CC=C(C)C)c(O)c3c(=O)c2c1CC=C(C)C [aMG, α-Mangostin]
- cytotoxicity (LDH) (0.0002%): lower than 30%
- cytotoxicity (LDH) (0.001%): lower than 30%
